For this assay, the target named is C5a receptor 1 (human) (UniProt P21730). Description: 125I-C5a displacement on C5aR1 membranes.

Sequences of proteins named here, by UniProt entry; tags and fusion partners are left off.
UniProt P21730: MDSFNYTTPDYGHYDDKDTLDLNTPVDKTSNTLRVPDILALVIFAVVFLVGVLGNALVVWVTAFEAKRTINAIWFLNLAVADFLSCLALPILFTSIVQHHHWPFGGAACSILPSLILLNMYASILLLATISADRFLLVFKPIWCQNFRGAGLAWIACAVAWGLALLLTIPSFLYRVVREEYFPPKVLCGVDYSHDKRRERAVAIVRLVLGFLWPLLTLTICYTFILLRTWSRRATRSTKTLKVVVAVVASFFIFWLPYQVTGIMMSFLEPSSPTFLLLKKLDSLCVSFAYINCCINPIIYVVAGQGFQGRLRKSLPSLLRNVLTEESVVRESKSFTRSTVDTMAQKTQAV

These are yes or no findings as the source states them, for the method shown. Some binding calls cover weakened binding; strength is not graded here.

Turning to LIRLWR (acetylated N-terminus (Ac-); C-terminus unblocked (-OH)) [Peptide P59, Ac-LIRLWR-OH], the binding result is given as “binds”.

As for RHYPYWR (acetylated N-terminus (Ac-); C-terminus unblocked (-OH)) [Peptide P32, Ac-RHYPYWR-OH], the binding result is reported as “binds”.

Source of the values: patent US20170129921A1.
